Data: the supplement of paper PMC10849652
This is one part of the list.

The chains behind the UniProt entries cited, without tags or fusion partners. Where a name states a change or a piece, a line headed by the entry shows the natural chain unless it says otherwise.
UniProt O43166: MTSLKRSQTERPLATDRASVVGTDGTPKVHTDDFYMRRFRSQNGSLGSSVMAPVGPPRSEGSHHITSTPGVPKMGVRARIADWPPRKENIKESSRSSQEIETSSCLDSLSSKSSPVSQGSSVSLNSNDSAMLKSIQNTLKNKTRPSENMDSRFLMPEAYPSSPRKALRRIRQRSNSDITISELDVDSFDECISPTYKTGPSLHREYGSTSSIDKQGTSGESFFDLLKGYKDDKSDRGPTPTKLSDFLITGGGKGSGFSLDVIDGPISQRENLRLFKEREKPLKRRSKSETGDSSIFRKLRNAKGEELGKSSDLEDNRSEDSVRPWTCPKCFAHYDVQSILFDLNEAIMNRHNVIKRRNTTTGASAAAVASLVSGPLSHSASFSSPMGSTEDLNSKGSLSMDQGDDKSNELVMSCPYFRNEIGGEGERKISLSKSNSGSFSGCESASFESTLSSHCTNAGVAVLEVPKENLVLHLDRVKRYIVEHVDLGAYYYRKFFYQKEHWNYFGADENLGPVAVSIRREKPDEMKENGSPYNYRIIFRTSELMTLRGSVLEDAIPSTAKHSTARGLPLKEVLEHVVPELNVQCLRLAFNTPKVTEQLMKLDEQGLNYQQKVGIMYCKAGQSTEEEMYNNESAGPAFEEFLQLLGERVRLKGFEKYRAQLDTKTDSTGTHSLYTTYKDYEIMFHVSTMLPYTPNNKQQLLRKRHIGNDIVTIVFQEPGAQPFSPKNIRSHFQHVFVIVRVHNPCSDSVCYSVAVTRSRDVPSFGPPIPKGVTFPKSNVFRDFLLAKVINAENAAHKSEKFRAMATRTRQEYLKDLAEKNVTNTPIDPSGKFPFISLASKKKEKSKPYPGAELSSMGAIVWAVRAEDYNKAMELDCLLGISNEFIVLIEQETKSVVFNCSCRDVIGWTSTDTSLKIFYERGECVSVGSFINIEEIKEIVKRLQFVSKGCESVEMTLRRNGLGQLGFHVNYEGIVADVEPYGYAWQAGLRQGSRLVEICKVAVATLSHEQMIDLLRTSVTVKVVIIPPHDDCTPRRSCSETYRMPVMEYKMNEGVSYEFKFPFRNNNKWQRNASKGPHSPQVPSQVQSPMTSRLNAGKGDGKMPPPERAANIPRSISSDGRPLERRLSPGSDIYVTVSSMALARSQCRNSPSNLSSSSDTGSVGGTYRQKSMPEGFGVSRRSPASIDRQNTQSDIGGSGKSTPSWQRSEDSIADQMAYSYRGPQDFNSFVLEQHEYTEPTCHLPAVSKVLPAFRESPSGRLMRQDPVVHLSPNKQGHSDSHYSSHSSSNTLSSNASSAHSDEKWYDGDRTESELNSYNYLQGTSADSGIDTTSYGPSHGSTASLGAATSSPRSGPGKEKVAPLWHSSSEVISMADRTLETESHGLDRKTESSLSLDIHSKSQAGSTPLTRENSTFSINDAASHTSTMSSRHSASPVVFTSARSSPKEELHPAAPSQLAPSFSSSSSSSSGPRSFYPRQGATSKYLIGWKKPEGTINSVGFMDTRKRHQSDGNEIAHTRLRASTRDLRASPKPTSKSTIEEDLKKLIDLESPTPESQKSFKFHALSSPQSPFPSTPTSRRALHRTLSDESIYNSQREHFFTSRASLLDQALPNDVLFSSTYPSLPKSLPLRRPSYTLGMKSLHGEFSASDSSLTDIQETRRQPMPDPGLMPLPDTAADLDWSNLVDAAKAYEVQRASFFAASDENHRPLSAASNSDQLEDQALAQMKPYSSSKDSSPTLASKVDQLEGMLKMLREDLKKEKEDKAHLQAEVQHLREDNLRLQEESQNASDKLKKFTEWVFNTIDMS
UniProt Q6NT16: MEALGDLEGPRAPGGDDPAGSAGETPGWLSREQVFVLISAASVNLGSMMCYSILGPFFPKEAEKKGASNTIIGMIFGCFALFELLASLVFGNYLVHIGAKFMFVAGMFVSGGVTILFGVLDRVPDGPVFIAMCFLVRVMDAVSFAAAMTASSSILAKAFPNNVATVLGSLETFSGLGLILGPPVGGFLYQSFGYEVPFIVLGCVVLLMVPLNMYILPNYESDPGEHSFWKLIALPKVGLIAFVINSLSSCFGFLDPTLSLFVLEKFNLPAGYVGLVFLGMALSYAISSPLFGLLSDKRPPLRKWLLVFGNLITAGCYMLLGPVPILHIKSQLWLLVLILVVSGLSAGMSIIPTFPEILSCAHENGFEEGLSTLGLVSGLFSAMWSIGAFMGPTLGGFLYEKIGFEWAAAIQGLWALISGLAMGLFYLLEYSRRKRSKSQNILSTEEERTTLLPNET
UniProt Q96BD8: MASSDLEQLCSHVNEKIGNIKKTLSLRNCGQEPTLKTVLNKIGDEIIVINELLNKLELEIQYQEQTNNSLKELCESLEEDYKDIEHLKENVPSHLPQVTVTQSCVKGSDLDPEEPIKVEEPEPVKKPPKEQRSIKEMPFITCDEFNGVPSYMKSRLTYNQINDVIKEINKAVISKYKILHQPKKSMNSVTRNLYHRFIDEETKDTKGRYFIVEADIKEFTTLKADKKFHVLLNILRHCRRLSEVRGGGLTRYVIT
UniProt Q7L8J4: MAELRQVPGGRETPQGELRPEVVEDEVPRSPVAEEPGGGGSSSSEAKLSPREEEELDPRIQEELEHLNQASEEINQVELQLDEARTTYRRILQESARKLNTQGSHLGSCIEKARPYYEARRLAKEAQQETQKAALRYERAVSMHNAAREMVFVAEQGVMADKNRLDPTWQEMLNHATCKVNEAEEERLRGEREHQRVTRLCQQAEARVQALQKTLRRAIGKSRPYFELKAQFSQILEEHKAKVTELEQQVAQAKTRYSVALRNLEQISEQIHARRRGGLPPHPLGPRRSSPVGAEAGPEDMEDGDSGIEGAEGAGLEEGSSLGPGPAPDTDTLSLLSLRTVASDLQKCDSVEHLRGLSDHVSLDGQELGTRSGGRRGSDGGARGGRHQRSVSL
UniProt Q9Y3L3: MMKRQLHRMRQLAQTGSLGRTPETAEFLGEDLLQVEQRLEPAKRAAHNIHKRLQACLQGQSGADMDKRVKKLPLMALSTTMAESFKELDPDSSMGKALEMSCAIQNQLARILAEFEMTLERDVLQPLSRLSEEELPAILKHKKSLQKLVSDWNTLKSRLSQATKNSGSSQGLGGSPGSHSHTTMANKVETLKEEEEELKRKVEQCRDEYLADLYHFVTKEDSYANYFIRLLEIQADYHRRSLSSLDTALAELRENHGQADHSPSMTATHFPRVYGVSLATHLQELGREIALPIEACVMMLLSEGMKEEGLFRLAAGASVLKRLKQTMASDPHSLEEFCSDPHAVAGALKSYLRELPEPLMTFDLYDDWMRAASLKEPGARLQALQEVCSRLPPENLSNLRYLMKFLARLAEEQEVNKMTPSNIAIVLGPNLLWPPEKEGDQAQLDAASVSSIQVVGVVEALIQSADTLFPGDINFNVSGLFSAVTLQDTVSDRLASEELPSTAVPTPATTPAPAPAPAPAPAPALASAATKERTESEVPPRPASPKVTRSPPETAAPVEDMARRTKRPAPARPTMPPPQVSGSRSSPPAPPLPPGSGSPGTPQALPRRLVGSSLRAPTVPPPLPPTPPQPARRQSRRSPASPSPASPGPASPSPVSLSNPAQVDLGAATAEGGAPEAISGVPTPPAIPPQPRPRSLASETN
UniProt Q86XK3: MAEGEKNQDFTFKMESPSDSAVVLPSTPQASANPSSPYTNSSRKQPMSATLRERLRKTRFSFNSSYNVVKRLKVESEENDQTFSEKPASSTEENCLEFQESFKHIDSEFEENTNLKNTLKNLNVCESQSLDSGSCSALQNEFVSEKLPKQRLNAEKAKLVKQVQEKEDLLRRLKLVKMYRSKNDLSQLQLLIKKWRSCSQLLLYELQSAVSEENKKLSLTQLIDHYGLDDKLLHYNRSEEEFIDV
UniProt Q7Z333: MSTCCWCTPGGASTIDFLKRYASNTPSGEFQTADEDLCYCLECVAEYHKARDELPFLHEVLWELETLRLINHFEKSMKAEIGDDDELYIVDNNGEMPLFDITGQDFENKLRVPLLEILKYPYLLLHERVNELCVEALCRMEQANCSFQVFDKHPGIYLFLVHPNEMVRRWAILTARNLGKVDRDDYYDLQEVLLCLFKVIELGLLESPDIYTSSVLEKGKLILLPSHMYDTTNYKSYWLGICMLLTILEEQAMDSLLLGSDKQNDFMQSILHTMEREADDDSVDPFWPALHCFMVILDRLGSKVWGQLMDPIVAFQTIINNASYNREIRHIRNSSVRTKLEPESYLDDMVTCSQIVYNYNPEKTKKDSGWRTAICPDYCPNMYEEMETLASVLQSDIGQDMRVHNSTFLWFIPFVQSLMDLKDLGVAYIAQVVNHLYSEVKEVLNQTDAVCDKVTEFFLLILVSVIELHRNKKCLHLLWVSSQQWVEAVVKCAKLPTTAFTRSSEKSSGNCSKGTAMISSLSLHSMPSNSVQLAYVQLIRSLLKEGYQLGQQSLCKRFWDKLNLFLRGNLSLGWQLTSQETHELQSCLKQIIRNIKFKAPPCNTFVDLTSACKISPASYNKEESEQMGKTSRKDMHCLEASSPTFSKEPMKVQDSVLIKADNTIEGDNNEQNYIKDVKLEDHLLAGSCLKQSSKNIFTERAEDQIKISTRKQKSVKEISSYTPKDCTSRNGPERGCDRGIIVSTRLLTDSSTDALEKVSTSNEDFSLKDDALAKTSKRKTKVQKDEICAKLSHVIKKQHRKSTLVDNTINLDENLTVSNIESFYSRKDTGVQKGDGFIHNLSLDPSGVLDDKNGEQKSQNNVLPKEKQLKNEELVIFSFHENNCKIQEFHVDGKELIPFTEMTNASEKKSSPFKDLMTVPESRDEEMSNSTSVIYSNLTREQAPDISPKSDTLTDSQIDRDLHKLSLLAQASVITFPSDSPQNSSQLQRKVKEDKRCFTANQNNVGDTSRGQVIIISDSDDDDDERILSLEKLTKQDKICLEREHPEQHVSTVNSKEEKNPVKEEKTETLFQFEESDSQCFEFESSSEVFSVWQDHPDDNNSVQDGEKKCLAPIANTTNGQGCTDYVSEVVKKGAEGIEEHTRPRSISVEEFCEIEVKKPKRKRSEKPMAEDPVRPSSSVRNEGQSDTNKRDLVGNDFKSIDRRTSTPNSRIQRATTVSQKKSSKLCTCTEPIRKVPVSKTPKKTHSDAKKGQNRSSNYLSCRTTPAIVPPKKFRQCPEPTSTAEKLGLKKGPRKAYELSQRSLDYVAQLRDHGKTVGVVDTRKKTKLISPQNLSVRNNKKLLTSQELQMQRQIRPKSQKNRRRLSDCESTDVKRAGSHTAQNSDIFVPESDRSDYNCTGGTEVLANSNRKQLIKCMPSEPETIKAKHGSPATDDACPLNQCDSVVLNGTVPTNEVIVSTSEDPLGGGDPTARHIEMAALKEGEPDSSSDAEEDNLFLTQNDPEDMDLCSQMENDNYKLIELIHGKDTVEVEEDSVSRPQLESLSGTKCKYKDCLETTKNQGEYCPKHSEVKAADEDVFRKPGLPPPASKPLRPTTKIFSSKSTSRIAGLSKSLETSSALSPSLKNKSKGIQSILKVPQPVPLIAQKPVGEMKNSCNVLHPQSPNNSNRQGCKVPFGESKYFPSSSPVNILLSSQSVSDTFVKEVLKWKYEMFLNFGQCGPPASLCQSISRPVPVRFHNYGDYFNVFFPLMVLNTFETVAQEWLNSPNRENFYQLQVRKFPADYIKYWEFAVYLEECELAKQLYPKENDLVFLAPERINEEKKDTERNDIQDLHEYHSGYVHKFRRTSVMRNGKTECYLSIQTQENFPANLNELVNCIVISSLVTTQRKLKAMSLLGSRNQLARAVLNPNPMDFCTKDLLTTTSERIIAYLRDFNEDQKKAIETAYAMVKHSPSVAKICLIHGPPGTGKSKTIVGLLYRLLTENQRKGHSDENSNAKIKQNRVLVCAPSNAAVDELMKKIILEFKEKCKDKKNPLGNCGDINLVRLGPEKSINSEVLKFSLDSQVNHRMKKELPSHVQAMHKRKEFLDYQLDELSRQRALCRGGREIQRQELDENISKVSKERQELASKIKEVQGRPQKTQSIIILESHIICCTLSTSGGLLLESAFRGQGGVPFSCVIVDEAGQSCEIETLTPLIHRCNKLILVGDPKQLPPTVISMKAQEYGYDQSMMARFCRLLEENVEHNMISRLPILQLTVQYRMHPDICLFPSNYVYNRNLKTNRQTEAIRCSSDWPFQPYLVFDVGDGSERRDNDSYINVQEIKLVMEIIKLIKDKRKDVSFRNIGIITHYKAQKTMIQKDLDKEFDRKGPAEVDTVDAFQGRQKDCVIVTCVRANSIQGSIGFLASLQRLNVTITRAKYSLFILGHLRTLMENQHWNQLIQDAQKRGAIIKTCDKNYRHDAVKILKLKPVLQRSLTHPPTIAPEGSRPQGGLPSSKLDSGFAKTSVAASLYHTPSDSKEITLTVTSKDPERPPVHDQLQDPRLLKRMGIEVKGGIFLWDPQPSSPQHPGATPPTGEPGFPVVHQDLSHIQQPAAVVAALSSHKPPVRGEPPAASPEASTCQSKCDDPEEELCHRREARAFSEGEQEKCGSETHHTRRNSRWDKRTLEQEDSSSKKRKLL

What follows are targets tested with O=C1NC(=O)C(c2cnc3ccccn23)=C1c1cn2c3c(cc(F)cc13)CN(C(=O)N1CCCCC1)CC2 (assay: log2 fold change, soluble protein after heating vs DMSO (PISA); higher = thermal stabilisation; K562 lysate, 10 uM; active = over 0.2 and 3.5 SD of the protein, either way, in both replicates (recomputed)).
Procedure, shortened: (§1)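 The values are log-two fold changes in thermal stability compared with solvent controls and come from duplicates. They were obtained by TMTpro 16plex LC-MS/MS, with channel sums equalised, on the supernatant after 21,000xg for 90 min. That supernatant came from crude K562 extract at 1 mg/mL protein treated with 10 μM compound for 30 min, heated for 3 min across 48°C-58°C, pooled and brought to 0.5% NP-40 at 4°C.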

log2 fold change, inactive:
SHCBP1 (UniProt Q8NEM2) -0.009
SLC19A1 (UniProt P41440) -0.054
SKP2 (UniProt Q13309) 0.009
SIPA1L1 (UniProt O43166) 0.037
SLC18B1 (UniProt Q6NT16) -0.095
SKA1 (UniProt Q96BD8) -0.07
SH3BP5L (UniProt Q7L8J4) 0.051
SHMT1 (UniProt P34896) -0.019
SET isoform 2 (UniProt Q01105) 0.001
SH3BP1 (UniProt Q9Y3L3) 0.036
SLC1A4 (UniProt P43007) -0.08
SIRT3 (UniProt Q9NTG7) 0.049

These targets were tested with c1cn2cc(-c3ccc4cn[nH]c4c3)nc(Nc3ccc(N4CCOCC4)cc3)c2n1 [entospletinib] in the same assay as above.
Procedure, shortened: as §1

log2 fold change, inactive:
SF3B6 (UniProt Q9Y3B4) -0.015
SLC16A1 (UniProt P53985) 0.012
SLC20A1 (UniProt Q8WUM9) 0.064
SLC12A2 (UniProt P55011) 0.031
SERPINB6, A0A087X1N8 -0.009
SH3BGR (UniProt P55822) -0.008
SF3B5 (UniProt Q9BWJ5) -0.069
SIL1 (UniProt Q9H173) -0.015
SF3A1 (UniProt Q15459) 0.002
SHFL (UniProt Q9NUL5) -0.026
SLC22A18 (UniProt Q96BI1) 0.013
SFR1 isoform 2 (UniProt Q86XK3) -0.043
SGO1 (UniProt Q5FBB7) -0.046
SETX isoform 4 (UniProt Q7Z333) -0.045
SIRT6 (UniProt Q8N6T7) -0.022
SFN (UniProt P31947) 0.045
SETDB1 (UniProt Q15047) -0.018
SKOR2 (UniProt Q2VWA4) -0.065
SH3GLB1 isoform 2 (UniProt Q9Y371) 0.023
SERPINI1 (UniProt Q99574) -0.016
SHCBP1 (UniProt Q8NEM2) -0.013
SLC19A1 (UniProt P41440) -0.002
SKP2 (UniProt Q13309) -0.103
SIPA1L1 (UniProt O43166) -0.026
SKA1 (UniProt Q96BD8) -0.021
SH3BP5L (UniProt Q7L8J4) 0.009
SHMT1 (UniProt P34896) 0
SET isoform 2 (UniProt Q01105) -0.01
SH3BP1 (UniProt Q9Y3L3) -0.038
SLC1A4 (UniProt P43007) 0.001
